At least one peptide structure holds a part that was inferred or is arguable (an end, a ring closure or a residue). Positions of bridges follow the written chain, without caps; N, C: chain ends. Non-standard residues stand in square brackets, D forms with d. Residues, ends and D or L forms follow the SMILES beside them.
Key:
LLC tumors = experiment: Co-administration of anti-VEGF antibody or VEGFR2 kinase inhibitor and UPI peptide in LLC tumor model; assay type: in vivo, mice; conditions: UPI 10 mg/kg
VEGFR2 = molecular target: T1, VEGFR2 (Homo sapiens, UniProt P35968); experiment: VEGFR2 internalization (biotin-labeled VEGF, FACS) in HUVEC^αvβ3; assay type: cell-based
T1 construct: endogenous in cells; host or cells: HUVEC transfected with integrin αv and β3

By UniProt entry, the sequences of proteins in these tests, tags left out. Residues count along the entry.
UniProt P35968, 20-1356: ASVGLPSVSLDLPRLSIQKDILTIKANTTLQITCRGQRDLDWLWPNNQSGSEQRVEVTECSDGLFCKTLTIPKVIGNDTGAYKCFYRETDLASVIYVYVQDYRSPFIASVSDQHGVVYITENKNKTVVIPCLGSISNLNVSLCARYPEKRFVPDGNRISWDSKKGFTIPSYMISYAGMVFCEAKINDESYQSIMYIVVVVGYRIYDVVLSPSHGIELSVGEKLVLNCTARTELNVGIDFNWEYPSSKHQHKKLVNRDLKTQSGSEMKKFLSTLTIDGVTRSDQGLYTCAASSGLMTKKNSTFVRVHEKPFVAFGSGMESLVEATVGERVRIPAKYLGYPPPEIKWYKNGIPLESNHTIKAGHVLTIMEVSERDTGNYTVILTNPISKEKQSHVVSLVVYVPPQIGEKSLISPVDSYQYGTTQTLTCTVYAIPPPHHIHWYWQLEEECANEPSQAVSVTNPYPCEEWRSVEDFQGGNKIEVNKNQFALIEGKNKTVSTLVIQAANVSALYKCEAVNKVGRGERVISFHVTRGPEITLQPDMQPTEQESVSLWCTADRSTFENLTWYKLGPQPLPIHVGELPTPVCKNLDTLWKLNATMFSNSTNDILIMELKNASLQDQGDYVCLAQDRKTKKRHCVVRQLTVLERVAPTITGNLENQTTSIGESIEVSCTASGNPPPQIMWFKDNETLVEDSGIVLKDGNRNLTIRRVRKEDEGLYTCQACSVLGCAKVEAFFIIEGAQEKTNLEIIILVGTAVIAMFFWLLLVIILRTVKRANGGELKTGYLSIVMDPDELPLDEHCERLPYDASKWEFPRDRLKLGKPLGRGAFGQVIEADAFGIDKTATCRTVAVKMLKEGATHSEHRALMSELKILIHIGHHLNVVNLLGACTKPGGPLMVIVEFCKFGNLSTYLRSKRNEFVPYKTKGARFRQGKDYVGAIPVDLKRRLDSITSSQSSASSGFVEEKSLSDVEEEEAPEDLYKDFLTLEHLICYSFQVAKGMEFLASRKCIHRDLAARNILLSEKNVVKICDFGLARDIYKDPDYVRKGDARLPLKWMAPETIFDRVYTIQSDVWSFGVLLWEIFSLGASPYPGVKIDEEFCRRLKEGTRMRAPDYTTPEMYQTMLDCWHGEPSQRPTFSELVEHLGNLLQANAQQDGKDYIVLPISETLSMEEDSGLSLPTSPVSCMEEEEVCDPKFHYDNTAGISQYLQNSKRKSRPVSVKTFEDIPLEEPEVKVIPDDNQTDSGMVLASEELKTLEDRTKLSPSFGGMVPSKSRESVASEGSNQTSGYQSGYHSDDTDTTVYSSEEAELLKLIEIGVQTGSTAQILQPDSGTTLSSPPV

glioma GL261 tumor = experiment: Orthotopic glioma GL261 model in C57BL/6 mice; assay type: in vivo; conditions: 10 mg/kg i.v.; anti-VEGF antibody 5 mg/kg as positive control
human glioma U87 tumors = experiment: Subcutaneous human glioma U87 tumor model in SCID mice; conditions: mouse, in vivo
[1] = molecular target: T2, endogenous epsin 1-VEGFR2 binding (Homo sapiens, UniProt P35968); experiment: Co-immunoprecipitation of endogenous epsin 1 by VEGFR2 in intact HUVEC^αvβ3; assay type: cell-based
T2 construct: endogenous in cells; host or cells: HUVEC transfected with integrin αv and β3 plasmids

CC[C@@H](C)[C@@H](NC(=O)[C@@H](CS)NC(=O)CNC(=O)[C@@H](CCSC)NC(=O)[C@@H](CCC(=O)O)NC(=O)[C@@H](CCC(=O)O)NC(=O)[C@@H](CCCCN)NC(=O)[C@@H](CO)NC(=O)[C@@H](CCSC)NC(=O)[C@@H](C)NC(=O)[C@@H](CC(C)C)NC(=O)[C@@H](C)NC(=O)[C@@H](CC(C)C)NC(=O)[C@@H](CCC(N)=O)NC(=O)[C@@H](CC(C)C)NC(=O)[C@@H](CCC(N)=O)NC(=O)[C@@H](CC(C)C)NC(=O)[C@@H](CCC(=O)O)NC(=O)[C@@H](CCC(=O)O)NC(=O)[C@@H](CCC(=O)O)NC(=O)CNC(=O)[C@H](N)CO)C(=O)N[C@H](CCCCN)C(=O)N[C@H](CO)C(=O)N[C@H](CCCCN)C(=O)N[C@H](CCCNC(=N)N)C(=O)N[C@H](CCCCN)C(=O)N[C@@H]1CSSC[C@H](C(=O)O)NC(=O)[C@@H](CC(=O)O)NC(=O)[C@H]2CCCN2C(=O)CNC(=O)[C@@H](CCCCN)NC(=O)[C@@H](CC(=O)O)NC(=O)CNC(=O)[C@@H](CCCNC(=N)N)NC1=O [UPI peptide] (H-[dS]G[dE][dE][dE][dL][dQ][dL][dQ][dL][dA][dL][dA][dM][dS][dK][dE][dE][dM]G[dC][dI][dK][dS][dK][dR][dK][dC][dR]G[dD][dK]G[dP][dD][dC]-OH; disulfide 28-36; N-terminus and C-terminus assumed)
UPI peptide therapeutic efficacy on co-injection with VEGFR2 kinase inhibitor (LLC tumors; VEGFR2 kinase inhibitor 0.5 mg/kg): impaired UPI peptide therapeutic efficacy
UPI peptide therapeutic efficacy on co-injection with anti-VEGF antibody (LLC tumors; anti-VEGF antibody 1.5 mg/kg, every second day for 12 days): impaired UPI peptide therapeutic efficacy
VEGFR2 endocytosis and plasma membrane accumulation (VEGFR2): impaired endocytosis of VEGFR2 and substantial increases in VEGFR2 accumulation at the plasma membrane
survival of GL261 tumor-bearing mice (glioma GL261 tumor): prolonged survival of tumor-bearing mice beyond the study endpoint, with efficacy comparable to current anti-VEGF antibody therapy
red blood cell leakage from tumor vessels (semi-thin sections) (human glioma U87 tumors): prominent red blood cell leakage from tumor vessels accompanied by dying tumor cells
endogenous epsin 1-VEGFR2 binding [1]: effectively inhibited endogenous epsin 1-VEGFR2 binding

Reference: US11084852B2, “Ubiquitin interacting motif peptides as therapeutics” (OKLAHOMA MEDICAL RESEARCH FOUNDATION, priority 2015, dated 2021)
